Laboratory results taken from paper doi:10.1101/2025.03.06.641832 (bioRxiv, 2025).

Molecular target: constitutively active PKCα catalytic domain, HA-tagged (PKCα-CAT-HA) (UniProt P17252)
Assay: co-IP

influenza A/H1N1/WSN nucleoprotein, V5-tagged (NP-V5) (from UniProt P15682 8-498)
binding: binds

These are yes or no findings as the source states them, for the method shown. Binding seen in cells or lysates may run through a third protein. A result given as binding can be weak or reduced; the word gives no strength.
